Here are results for two molecules from patent publication US20180030093A1 (Agency for Science, Technology and Research, priority 2015, published 2018).

“Also recorded” adds a separate entry of the source. Non-standard residues stand in square brackets, D forms with d. Residues, ends and D or L forms follow the SMILES beside them.

Data set [1] is described as follows: FESEM morphological characterization of hydrogel scaffolds. Conditions: freeze-dried hydrogel scaffold.
The next data set in a line: peptide synthesis. Conditions: cyclisation step.

Consider `CC[C@H](C)[C@@H]1NC(=O)[C@@H](CC(C)C)NC(=O)[C@H](CO)NC(=O)CNC(=O)[C@H](C)NC(=O)[C@@H](C(C)C)NC1=O` [cLS6, cLIVAGS] (cyclo([dL]I[dV]AGS)), for which, in data set [1], the “morphology by FESEM” value is recorded as “fibrillization of cLS6 is clearly visible; also recorded: confirmed a fibre structure”.
As for “cyclo([dL]I[dV]AGS) (SMILES CC[C@H](C)[C@@H]1NC(=O)[C@@H](CC(C)C)NC(=O)[C@H](CO)NC(=O)CNC(=O)[C@H](C)NC(=O)[C@@H](C(C)C)NC1=O)”, the difficulty met entry in “peptide synthesis” was “Since solution was cyclization resulted in low yield”.
